Values of other authors in US20200101067A1 (IRR, Inc., priority 2013, published 2020).

Amino acid sequences for entries named in this document (tags omitted).
UniProt P35367, whole entry: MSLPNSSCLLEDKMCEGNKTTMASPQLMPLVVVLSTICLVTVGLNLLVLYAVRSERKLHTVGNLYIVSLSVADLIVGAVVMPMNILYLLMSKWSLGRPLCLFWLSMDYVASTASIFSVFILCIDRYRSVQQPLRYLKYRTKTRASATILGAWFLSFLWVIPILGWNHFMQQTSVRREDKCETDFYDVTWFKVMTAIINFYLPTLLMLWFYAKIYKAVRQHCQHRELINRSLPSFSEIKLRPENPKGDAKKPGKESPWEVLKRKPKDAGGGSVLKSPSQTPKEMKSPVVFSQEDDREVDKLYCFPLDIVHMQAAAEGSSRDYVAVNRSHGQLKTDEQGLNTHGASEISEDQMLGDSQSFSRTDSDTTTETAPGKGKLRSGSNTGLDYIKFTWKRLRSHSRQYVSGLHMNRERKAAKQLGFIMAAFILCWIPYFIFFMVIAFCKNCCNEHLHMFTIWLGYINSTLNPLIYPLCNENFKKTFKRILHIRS

Legend:
[1] = in vivo
H1 receptor = H1 receptor (Homo sapiens, UniProt P35367)

O=C(O)COCCN1CCN([C@H](c2ccccc2)c2ccc(Cl)cc2)CC1 [Levocetirizine, levocetirizine]
Time to peak plasma level [1]: 0.9 h
Receptor affinity in an acidic ph, increased (H1 receptor): increased 5x
